Reference: publication PMC10584915
These are yes or no findings as the source states them, for the method shown. In cells and extracts the contact can be indirect. Some binding calls cover weakened binding; strength is not graded here.

By UniProt entry, the sequences of proteins in these tests, tags left out. Where a name states a change or a piece, a line headed by the entry shows the natural chain unless it says otherwise.
UniProt Q16637: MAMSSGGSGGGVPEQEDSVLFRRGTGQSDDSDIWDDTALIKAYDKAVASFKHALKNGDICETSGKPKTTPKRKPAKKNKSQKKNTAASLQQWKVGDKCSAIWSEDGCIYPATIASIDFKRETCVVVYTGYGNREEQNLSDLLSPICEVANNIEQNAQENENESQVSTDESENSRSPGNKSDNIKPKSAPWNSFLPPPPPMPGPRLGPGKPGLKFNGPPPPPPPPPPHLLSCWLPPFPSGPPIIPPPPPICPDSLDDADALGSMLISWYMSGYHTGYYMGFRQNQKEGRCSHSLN
UniProt Q9UHI6: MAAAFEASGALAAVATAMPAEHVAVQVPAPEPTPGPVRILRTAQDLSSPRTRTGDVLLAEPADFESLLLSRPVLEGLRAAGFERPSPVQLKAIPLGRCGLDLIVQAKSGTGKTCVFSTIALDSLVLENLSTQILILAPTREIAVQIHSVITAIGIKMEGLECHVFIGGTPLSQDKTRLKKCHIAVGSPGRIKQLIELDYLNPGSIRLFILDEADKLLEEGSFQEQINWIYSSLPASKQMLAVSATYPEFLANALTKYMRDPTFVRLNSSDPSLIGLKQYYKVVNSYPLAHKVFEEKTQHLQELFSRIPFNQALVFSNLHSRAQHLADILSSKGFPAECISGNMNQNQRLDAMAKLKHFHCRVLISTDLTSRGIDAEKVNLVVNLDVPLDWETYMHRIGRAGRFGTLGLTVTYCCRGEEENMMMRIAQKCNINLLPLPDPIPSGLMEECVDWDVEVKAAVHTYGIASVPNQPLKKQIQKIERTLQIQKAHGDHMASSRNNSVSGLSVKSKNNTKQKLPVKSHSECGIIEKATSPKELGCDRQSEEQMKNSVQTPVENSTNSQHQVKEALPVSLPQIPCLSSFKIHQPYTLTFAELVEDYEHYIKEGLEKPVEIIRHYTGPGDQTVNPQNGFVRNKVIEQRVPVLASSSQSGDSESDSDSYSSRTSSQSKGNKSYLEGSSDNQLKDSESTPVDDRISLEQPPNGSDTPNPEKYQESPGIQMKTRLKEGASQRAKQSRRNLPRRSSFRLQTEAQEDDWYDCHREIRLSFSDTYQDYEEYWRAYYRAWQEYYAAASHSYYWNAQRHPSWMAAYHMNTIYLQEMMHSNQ
UniProt Q8TEQ6: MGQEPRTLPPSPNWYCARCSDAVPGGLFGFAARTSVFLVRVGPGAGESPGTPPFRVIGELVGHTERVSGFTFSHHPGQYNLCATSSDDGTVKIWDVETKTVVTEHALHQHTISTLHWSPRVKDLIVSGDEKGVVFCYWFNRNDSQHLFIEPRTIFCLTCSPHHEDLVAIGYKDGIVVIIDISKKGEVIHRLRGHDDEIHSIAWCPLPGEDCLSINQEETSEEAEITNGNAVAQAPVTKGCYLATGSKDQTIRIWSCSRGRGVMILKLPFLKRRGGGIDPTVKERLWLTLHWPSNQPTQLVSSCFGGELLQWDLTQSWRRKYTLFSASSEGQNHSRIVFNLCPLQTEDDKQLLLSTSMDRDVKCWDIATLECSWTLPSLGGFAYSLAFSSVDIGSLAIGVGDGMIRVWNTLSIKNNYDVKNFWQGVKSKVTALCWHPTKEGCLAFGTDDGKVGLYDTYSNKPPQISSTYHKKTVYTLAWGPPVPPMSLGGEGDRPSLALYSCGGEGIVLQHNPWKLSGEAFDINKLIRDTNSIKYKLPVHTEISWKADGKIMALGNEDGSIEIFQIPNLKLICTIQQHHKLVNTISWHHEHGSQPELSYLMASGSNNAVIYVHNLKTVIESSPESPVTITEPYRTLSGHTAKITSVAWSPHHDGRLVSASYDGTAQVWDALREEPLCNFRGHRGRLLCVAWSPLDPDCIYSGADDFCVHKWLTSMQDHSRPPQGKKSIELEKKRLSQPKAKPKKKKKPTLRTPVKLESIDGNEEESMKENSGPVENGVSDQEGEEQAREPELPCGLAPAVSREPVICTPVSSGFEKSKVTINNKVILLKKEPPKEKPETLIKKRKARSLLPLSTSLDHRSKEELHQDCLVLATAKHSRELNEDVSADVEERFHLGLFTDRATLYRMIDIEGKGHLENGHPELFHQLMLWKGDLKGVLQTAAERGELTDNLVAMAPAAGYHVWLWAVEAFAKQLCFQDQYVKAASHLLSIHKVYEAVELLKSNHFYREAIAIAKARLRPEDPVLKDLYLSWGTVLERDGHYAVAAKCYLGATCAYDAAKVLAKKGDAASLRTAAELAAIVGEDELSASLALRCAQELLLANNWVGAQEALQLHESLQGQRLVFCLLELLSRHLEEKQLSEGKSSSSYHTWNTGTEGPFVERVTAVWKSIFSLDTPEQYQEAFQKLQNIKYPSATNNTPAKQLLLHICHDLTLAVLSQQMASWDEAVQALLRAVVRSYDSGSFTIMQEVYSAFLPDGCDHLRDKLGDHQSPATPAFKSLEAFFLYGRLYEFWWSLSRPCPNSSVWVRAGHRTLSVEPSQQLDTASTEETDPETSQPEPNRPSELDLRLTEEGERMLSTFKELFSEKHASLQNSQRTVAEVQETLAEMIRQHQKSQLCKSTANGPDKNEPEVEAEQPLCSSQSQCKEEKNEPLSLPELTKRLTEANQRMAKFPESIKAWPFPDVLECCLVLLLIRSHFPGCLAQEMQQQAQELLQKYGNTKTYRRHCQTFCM

Molecular target: SMN (human (endogenous in HeLa)) (UniProt Q16637)
Assay: co-IP; SMN complex precipitated from cell lysate (1xPBS, 0.01% NP-40, 2.5 mM MgCl2) with anti-SMN antibody 7B10 covalently coupled to ProteinG-Sepharose, 3 h at 4 °C; beads analysed by SDS-PAGE with Coomassie staining or western blotting; cells mock treated or treated with dTAG13 (0.5 uM, 72 h) to degrade Gemin3

Substance	binding
Gemin3-GFP-FKBP12^F36V protein (from UniProt Q9UHI6 1-824)	binds
Gemin5 (from UniProt Q8TEQ6 1-1508)	binds
